Experimental data: PubChem BioAssay AID1259258 (Sanger Institute, 2017)
Aim: 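Single siRNAs acting synergistically with drugs against colorectal cancer cells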 (follow-up of hits). Cell system: human SW48 colorectal cancer cells. Reagents: single siRNA against human genes. Challenge: anchor drug cetuximab 5 µg/ml, trametinib 10 nM or BYL719 1 µM, or DMSO vehicle alone; assay length not stated. Measured: 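Cell viability after siRNA plus DMSO, cetuximab 5 µg/ml, trametinib 10 nM or BYL719 1 µM, scaled to non-targeting pool 2 and replicate-averaged; synergy score weighs combined against single effects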. Direction: synergy score with trametinib and synergy score with BYL719 and synergy score with cetuximab: higher = stronger synergy, more killing than expected. Call rule: 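Any one of the three anchor drugs giving a synergy value over 0.10 makes the siRNA a hit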.
In all, the deposit lists 160 reagents; below is an unselected part. In the full data, 40 (25%) got an active call. 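Each row is one of four siRNAs per gene; a gene counts as confirmed only when several of its siRNAs show synergy.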 A number with no mark means an inactive call. Reagents against one gene are numbered here. Not all columns of the deposit are shown. Not given: the amount of reagent, the time to read-out.

| target | reagent | synergy score with trametinib | synergy score with BYL719 | synergy score with cetuximab |
| --- | --- | --- | --- | --- |
| PLK1 | 1 | 0.0406 | -0.0417 | -0.00879 |
| PLK1 | 2 | -0.0287 | -0.0512 | -0.0143 |
| PLK1 | 3 | 0.00794 | -0.0229 | -0.0118 |
| PLK1 | 4 | -0.0209 | -0.0766 | -0.00596 |
| HSPB8 | 1 | 0.235 (active) | 0.116 | 0.0273 |
| HSPB8 | 2 | -0.0849 | -0.131 | -0.118 |
| HSPB8 | 3 | -0.00543 | -0.121 | -0.207 |
| HSPB8 | 4 | 0.0894 | -0.0382 | -0.041 |
| CHD4 | 1 | 0.0425 | -0.111 | 0.0191 |
| CHD4 | 2 | 0.0989 (active) | -0.00152 | 0.136 |
| CHD4 | 3 | 0.082 | -0.0992 | -0.00478 |
| CHD4 | 4 | 0.109 (active) | -0.0609 | -0.00786 |

2 of these entries in another layout:
target | reagent | synergy score with trametinib | synergy score with BYL719 | synergy score with cetuximab
PLK1 | 3 | 0.00794 | -0.0229 | -0.0118
PLK1 | 4 | -0.0209 | -0.0766 | -0.00596
